Measured values published in article PMC3854969.
No constants are given. Whether binding was seen depends on the method and setting. Binding seen in cells or lysates may run through a third protein. A yes stands for co-enrichment or nearness to the bait. Other partners may have been found. Sequences can lack the tags named with a protein.

By UniProt entry, the sequences of proteins in these tests, tags left out. Where a name states a change or a piece, a line headed by the entry shows the natural chain unless it says otherwise.
UniProt Q3SXY8: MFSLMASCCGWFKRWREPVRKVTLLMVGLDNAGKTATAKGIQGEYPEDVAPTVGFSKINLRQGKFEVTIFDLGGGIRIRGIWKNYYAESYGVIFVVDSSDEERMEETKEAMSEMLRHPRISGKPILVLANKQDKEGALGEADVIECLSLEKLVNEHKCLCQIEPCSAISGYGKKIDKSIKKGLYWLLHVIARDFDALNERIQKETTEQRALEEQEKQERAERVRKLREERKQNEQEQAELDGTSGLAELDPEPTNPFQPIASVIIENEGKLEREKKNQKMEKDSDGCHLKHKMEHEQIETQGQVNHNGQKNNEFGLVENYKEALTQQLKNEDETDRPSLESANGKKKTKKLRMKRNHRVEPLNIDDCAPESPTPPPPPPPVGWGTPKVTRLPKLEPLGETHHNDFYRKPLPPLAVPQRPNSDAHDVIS

How the values were obtained:
[1] = biological target: N-terminally SF (Strep-Flag)-tagged human ARL13B (wild type) (human) (UniProt Q3SXY8); test: affinity purification with mass spectrometry; SILAC with one-step Strep-Tactin purification from HEK293T lysates; SF-tagged ARL13B against SF-TAP alone or mutated SF-tagged ARL13B; eluates combined; quantitative MS, at least 2-fold enrichment
[2] = biological target: N-terminally SF (Strep-Flag)-tagged human ARL13B (wild type) (human) (UniProt Q3SXY8); test: affinity purification with mass spectrometry; SF-TAP: two steps (Strep-Tactin Superflow, then anti-Flag M2 agarose, Flag peptide elution) from lysates of HEK293T cells transiently expressing SF-tagged ARL13B; lysis in TBS with 0.5% Nonidet-P40, 4°C; compared with SF tag alone; LC-MS/MS
[3] = biological target: SF-ARL13B(T35N), predicted GDP-locked human ARL13B (human) (UniProt Q3SXY8); test: as above
[4] = biological target: C-terminally SF (Strep-Flag)-tagged human ARL13B (wild type) (human) (UniProt Q3SXY8); test: as above

Measured: binding

B1: intraflagellar transport 25 (protein, UniProt Q9Y547 1-144)
chain: MRKIDLCLSSEGSEVILATSSDEKHPPENIIDGNPETFWTTTGMFPQEFIICFHKHVRIERLVIQSYFVQTLKIEKSTSKEPVDFEQWIEKDLVHTEGQLQNEEIVAHDGSATYLRFIIVSAFDHFASVHSVSAEGTVVSNLSS
binds: [1] | [2] | [3] | [4]

B2: intraflagellar transport 46 (protein, UniProt Q9NQC8 1-304)
chain: MADNSSDECEEENNKEKKKTSQLTPQRGFSENEDDDDDDDDSSETDSDSDDDDEEHGAPLEGAYDPADYEHLPVSAEIKELFQYISRYTPQLIDLDHKLKPFIPDFIPAVGDIDAFLKVPRPDGKPDNLGLLVLDEPSTKQSDPTVLSLWLTENSKQHNITQHMKVKSLEDAEKNPKAIDTWIESISELHRSKPPATVHYTRPMPDIDTLMQEWSPEFEELLGKVSLPTAEIDCSLAEYIDMICAILDIPVYKSRIQSLHLLFSLYSEFKNSQHFKALAEGKKAFTPSSNSTSQAGDMETLTFS
binds: [1] | [2] | [3] | [4]

B3: intraflagellar transport 81 (protein, UniProt Q8WYA0 1-676)
chain: MSDQIKFIMDSLNKEPFRKNYNLITFDSLEPMQLLQVLSDVLAEIDPKQLVDIREEMPEQTAKRMLSLLGILKYKPSGNATDMSTFRQGLVIGSKPVIYPVLHWLLQRTNELKKRAYLARFLIKLEVPSEFLQDETVADTNKQYEELMEAFKTLHKEYEQLKISGFSTAEIRKDISAMEEEKDQLIKRVEHLKKRVETAQNHQWMLKIARQLRVEKEREEYLAQQKQEQKNQLFHAVQRLQRVQNQLKSMRQAAADAKPESLMKRLEEEIKFNLYMVTEKFPKELENKKKELHFLQKVVSEPAMGHSDLLELESKINEINTEINQLIEKKMMRNEPIEGKLSLYRQQASIISRKKEAKAEELQEAKEKLASLEREASVKRNQTREFDGTEVLKGDEFKRYVNKLRSKSTVFKKKHQIIAELKAEFGLLQRTEELLKQRHENIQQQLQTMEEKKGISGYSYTQEELERVSALKSEVDEMKGRTLDDMSEMVKKLYSLVSEKKSALASVIKELRQLRQKYQELTQECDEKKSQYDSCAAGLESNRSKLEQEVRRLREECLQEESRYHYTNCMIKNLEVQLRRATDEMKAYISSDQQEKRKAIREQYTKNTAEQENLGKKLREKQKVIRESHGPNMKQAKMWRDLEQLMECKKQCFLKQQSQTSIGQVIQEGGEDRLIL
binds: [1] | [2] | [3] | [4]
